No constants are given. Whether binding was seen depends on the method and setting. In cells and extracts the contact can be indirect. A yes stands for co-enrichment or nearness to the bait. Other partners may have been found. Sequences can lack the tags named with a protein.
Molecular target: T1, Flag-tagged FBXO2 (wild type) (human) (UniProt Q9UK22)
T1 sequence: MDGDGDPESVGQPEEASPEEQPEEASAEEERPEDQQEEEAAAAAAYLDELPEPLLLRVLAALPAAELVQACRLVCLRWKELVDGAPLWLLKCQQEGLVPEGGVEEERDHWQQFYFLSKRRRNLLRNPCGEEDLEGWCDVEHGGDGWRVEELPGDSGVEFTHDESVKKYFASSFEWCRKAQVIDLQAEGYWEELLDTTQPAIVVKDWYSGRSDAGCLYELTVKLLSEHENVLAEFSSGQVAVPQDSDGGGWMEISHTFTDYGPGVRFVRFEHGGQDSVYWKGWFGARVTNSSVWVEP
Assay: affinity purification with mass spectrometry

B1: heat shock protein 47 (Hsp47), endogenous (protein, UniProt P50454 19-418)
chain: AEVKKPAAAAAPGTAEKLSPKAATLAERSAGLAFSLYQAMAKDQAVENILVSPVVVASSLGLVSLGGKATTASQAKAVLSAEQLRDEEVHAGLGELLRSLSNSTARNVTWKLGSRLYGPSSVSFADDFVRSSKQHYNCEHSKINFRDKRSALQSINEWAAQTTDGKLPEVTKDVERTDGALLVNAMFFKPHWDEKFHHKMVDNRGFMVTRSYTVGVMMMHRTGLYNYYDDEKEKLQIVEMPLAHKLSSLIILMPHHVEPLERLEKLLTKEQLKIWMGKMQKKAVAISLPKGVVEVTHDLQKHLAGLGLTEAIDKNKADLSRMSGKKDLYLASVFHATAFELDTDGNPFDQDIYGREELRSPKLFYADHPFIFLVRDTQSGSLLFIGRLVRPKGDKMRDEL
- binding: binds

Reference: paper doi:10.1101/2024.03.28.586926
